Experimental data reported in publication PMC11852824.
Results are given in words; binding and its absence hold for the method and conditions named. In cells and extracts the contact can be indirect. Binding can be weak; no strength is given.

Target: T1, CD133 (UniProt O43490)
T1 sequence: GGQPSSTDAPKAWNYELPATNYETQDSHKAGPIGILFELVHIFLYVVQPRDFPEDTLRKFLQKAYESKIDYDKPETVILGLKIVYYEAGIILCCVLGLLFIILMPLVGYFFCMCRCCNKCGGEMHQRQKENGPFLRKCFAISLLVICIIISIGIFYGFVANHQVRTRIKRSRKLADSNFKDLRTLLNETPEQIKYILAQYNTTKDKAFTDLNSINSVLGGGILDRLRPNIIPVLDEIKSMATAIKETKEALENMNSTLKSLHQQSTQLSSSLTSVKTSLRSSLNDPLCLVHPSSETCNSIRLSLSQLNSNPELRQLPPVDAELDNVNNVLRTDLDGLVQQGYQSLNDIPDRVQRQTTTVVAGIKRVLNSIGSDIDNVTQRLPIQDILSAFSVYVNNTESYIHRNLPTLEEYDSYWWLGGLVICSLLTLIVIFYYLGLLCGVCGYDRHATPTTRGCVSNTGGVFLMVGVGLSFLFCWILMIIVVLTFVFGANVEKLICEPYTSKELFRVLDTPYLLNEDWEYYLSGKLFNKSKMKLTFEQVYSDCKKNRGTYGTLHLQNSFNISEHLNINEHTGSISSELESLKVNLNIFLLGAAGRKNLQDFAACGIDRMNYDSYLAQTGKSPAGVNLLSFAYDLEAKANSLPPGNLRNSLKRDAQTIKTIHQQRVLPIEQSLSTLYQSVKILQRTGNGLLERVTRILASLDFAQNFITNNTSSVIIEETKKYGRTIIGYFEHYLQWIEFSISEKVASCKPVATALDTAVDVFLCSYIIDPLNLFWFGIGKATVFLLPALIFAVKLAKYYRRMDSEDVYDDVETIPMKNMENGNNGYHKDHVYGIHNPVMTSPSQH
Assay: co-IP; lysates of BAKP cells induced with Dox for 24 h to express CD133; immunoprecipitation with anti-CD133 bound to beads; SDS-PAGE and immunoblot with anti-p85 subunit of PI3K

binding: binds
Substance: p85 subunit of PI3K (human (endogenous in BAKP))
